Results reported in the RNAGym collection of RNA variant scans (doi:10.1126/science.aae0568).
Variants at the floor of the assay are shown more often than the library holds them.

B1: tRNA (parent)
chain: GUUCCGUUGGCGUAAUGGUAACGCGUCUCCCUCCUAAGGAGAAGACUGCGGGUUCGAGUCCCGUACGGAACG

Variants of: B1
Assay: yeast fitness relative to wild type (ratio to wild type); higher = fitter; tRNA-Arg(CCU), competitive growth, 37 C, YPD
Summary of the method: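 A pool of Saccharomyces cerevisiae strains, each with a tRNA-Arg(CCU) gene variant at the native genomic locus, was competed in YPD at 37°C for 24 hours across six parallel replicates. The variants had been chemically synthesised at a 3% per-site mutation rate over 69 sites, and gene amplicons before and after competition were read by 100-nucleotide paired-end sequencing. Darwinian fitness relative to wild type rested on changes in genotype frequencies. Genotypes required ≥ 100 starting reads, and estimates < 0.5 were set to 0.5.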

| Variant | yeast fitness |
| --- | --- |
| U2A A14C C30U C34G G63A | 0.574 |
| U2A A14U A21G | ≤ 0.5 |
| U2A A14U C62U U64C | ≤ 0.5 |
| U2A A15U A37C | ≤ 0.5 |
| U2A A20G G44A A70U | ≤ 0.5 |
| U2A A21G G39A A65G | ≤ 0.5 |
| U2A A42U G67C | ≤ 0.5 |
| U2A A43C C49U | 0.602 |
| U2A A43C U53A A70G | ≤ 0.5 |
| U2A A57G | 0.897 |
| U2A A57U G68C | ≤ 0.5 |
| U2A C4A C31U G38A U54G | ≤ 0.5 |
| U2A C4A U13C G68C | ≤ 0.5 |
| U2A C4G C5G A36G | ≤ 0.5 |
| U2A C4G C5G U54C | ≤ 0.5 |
| U2A C4G G9A G44A | ≤ 0.5 |
| U2A C4G G18C | ≤ 0.5 |
| U2A C4U U8G C31A G44C A65G | ≤ 0.5 |
| U2A C5G | 0.728 |
| U2A C5G U35C | ≤ 0.5 |
| U2A C5U G9A U13A C24A A45C | ≤ 0.5 |
| U2A C5U G17A A21G C30G G52C C61U | ≤ 0.5 |
| U2A C5U G39C G67U | ≤ 0.5 |
| U2A C11A G38C C60A A70C | ≤ 0.5 |

| Variant | yeast fitness |
| --- | --- |
| U2A C11A G51A C61A | ≤ 0.5 |
| U2A C11G A37U A40U | ≤ 0.5 |
| U2A C11G C29U C34U C62A C66U | ≤ 0.5 |
| U2A C11G U35G | ≤ 0.5 |
| U2A C11U U16C C30A | ≤ 0.5 |
| U2A C24G A37C C66U | ≤ 0.5 |
| U2A C24G A43U C46U | 0.542 |
| U2A C24U C31G G44A | ≤ 0.5 |
| U2A C27G C31A C34A G38C C49G | ≤ 0.5 |
| U2A C27U A36C C61A | ≤ 0.5 |
| U2A C29A A40G C49G | ≤ 0.5 |
| U2A C31G A65G | 0.642 |
| U2A C31G C60A C66G | ≤ 0.5 |
| U2A C33G A42C A69U | ≤ 0.5 |
| U2A C34G G63A | ≤ 0.5 |
| U2A C66A A69C | ≤ 0.5 |
| U2A G6A C11G C49U U54C G58C | ≤ 0.5 |
| U2A G6C A21G U32C U59G C66U A70C | ≤ 0.5 |
| U2A G9A A20C C24U A69U | ≤ 0.5 |
| U2A G9C U16G U32G G52A G63C | ≤ 0.5 |
| U2A G10A U13C A37U C66G | ≤ 0.5 |
| U2A G12A A20U A40C | ≤ 0.5 |
| U2A G12C U32A G44C | ≤ 0.5 |
| U2A G23A C30U C62A | ≤ 0.5 |

| Variant | yeast fitness |
| --- | --- |
| U2A G23C C27U C31G A42C C61U | ≤ 0.5 |
| U2A G23C C55U | ≤ 0.5 |
| U2A G25C U26G C60U C62G U64A A69U | ≤ 0.5 |
| U2A G38C A65C | ≤ 0.5 |
| U2A G38C G44C A69U | ≤ 0.5 |
| U2A G39C A70G | ≤ 0.5 |
| U2A G41C G50C A57G | ≤ 0.5 |
| U2A G67U | 0.824 |
| U2A U3A G51A | ≤ 0.5 |
| U2A U3A U26A G51A A70U | ≤ 0.5 |
| U2A U7C U16C C30A | ≤ 0.5 |
| U2A U8A G10A | ≤ 0.5 |
| U2A U8A G67A | ≤ 0.5 |
| U2A U8C C34G | ≤ 0.5 |
| U2A U8C G67U | ≤ 0.5 |
| U2A U13A A14C C33U G63A | ≤ 0.5 |
| U2A U13C A20G A21C C34U A36G A69C | ≤ 0.5 |
| U2A U13G A40C G41C | ≤ 0.5 |
| U2A U13G A40C G41C G68C | ≤ 0.5 |
| U2A U16C A40G A43U | ≤ 0.5 |
| U2A U16C G25C | ≤ 0.5 |
| U2A U16G C49G | 0.705 |
| U2A U19G C29G C49A G51C A65C | ≤ 0.5 |
| U2A U26G C27G C33U G39C C49U | ≤ 0.5 |

| Variant | yeast fitness |
| --- | --- |
| U2A U28A A37C | ≤ 0.5 |
| U2A U28G A37G C62A | ≤ 0.5 |
| U2A U32C A36G | 0.736 |
| U2A U35C G41C | ≤ 0.5 |
| U2A U47G C49A C60U A65C | ≤ 0.5 |
| U2C A14G G25A A69C | ≤ 0.5 |
| U2C A14G U28G C29U A57C | ≤ 0.5 |
| U2C A14U U16A | ≤ 0.5 |
| U2C A15C C24A G41C | ≤ 0.5 |
| U2C A15G U35G A36C A40U A70C | ≤ 0.5 |
| U2C A15U A20U C49U | ≤ 0.5 |
| U2C A15U U16A | 0.62 |
| U2C A20C C27A A36G A43G | ≤ 0.5 |
| U2C A20G C27G A37C G38C A43G C55A U64G | ≤ 0.5 |
| U2C A20U | 0.91 |
| U2C A36C C66G | ≤ 0.5 |
| U2C A37U C62A | ≤ 0.5 |
| U2C A42C G63A C66U | ≤ 0.5 |
| U2C A45C C66A | ≤ 0.5 |
| U2C C4A U28C G44C G67A | ≤ 0.5 |
| U2C C4A U32C A43C | ≤ 0.5 |
| U2C C4G C22U C30A A65U | ≤ 0.5 |
| U2C C4U A21C A43G C60G A65G | ≤ 0.5 |
| U2C C4U C22U C31U C60G A70G | ≤ 0.5 |

| Variant | yeast fitness |
| --- | --- |
| U2C C11A | ≤ 0.5 |
| U2C C11A C22G U54C G56A | ≤ 0.5 |
| U2C C11G C22G G56A G63A | ≤ 0.5 |
| U2C C11U G12A A15G G48C A65C | ≤ 0.5 |
| U2C C24A U26A U47C C49U C61U | ≤ 0.5 |
| U2C C24G C29U A69C | ≤ 0.5 |
| U2C C24G C30U A40G G44A U47C G51C | ≤ 0.5 |
| U2C C24U C31U C34U A36C G39A G41C | ≤ 0.5 |
| U2C C27A A45C C49A A70G | ≤ 0.5 |
| U2C C27G U28A A43U A69U | 0.541 |
| U2C C29A C31A A40U U47A C49U | ≤ 0.5 |
| U2C C29A G63A | ≤ 0.5 |
| U2C C29U U35A A70C | ≤ 0.5 |
| U2C C30A U53A | ≤ 0.5 |
| U2C C30G A69C | ≤ 0.5 |
| U2C C34G U59A | ≤ 0.5 |
| U2C C46U U59C | 0.705 |
| U2C C55U | 0.792 |
| U2C G6A A42C C66U | ≤ 0.5 |
| U2C G6A C61G | ≤ 0.5 |
| U2C G9C C11U A36C A57U A69C | ≤ 0.5 |
| U2C G9U C61G | ≤ 0.5 |
| U2C G9U G12A A20C A57G A65C | ≤ 0.5 |
| U2C G10C | 0.724 |

| Variant | yeast fitness |
| --- | --- |
| U2C G10C C22U U28C | ≤ 0.5 |
| U2C G10C C31U A43G U54C | ≤ 0.5 |
| U2C G10C G12C C33U U35G | ≤ 0.5 |
| U2C G17A A37C | 0.791 |
| U2C G17A U19G A69C | ≤ 0.5 |
| U2C G18A C24U | 0.529 |
| U2C G18A G25A | 0.599 |
| U2C G18C G23C C33U G39A A43U C62A G63C | 0.851 |
| U2C G25A A42U | 0.561 |
| U2C G39C C61G | ≤ 0.5 |
| U2C G39C G48C C61U | ≤ 0.5 |
| U2C G44A | 0.86 |
| U2C G44A U64G | ≤ 0.5 |
| U2C G44C C66A | ≤ 0.5 |
| U2C G63A | 0.799 |
| U2C U3A U32A U59C | ≤ 0.5 |
| U2C U3C U19A U64A | ≤ 0.5 |
| U2C U7G A15G A45U G50A A57C A69U | ≤ 0.5 |
| U2C U8G U32G U35A | ≤ 0.5 |
| U2C U13C C61G | ≤ 0.5 |
| U2C U16A C30U G56A A69C | ≤ 0.5 |
| U2C U16G A69G A70U | ≤ 0.5 |
| U2C U16G G25A A40C C46U | ≤ 0.5 |
| U2C U19A | 0.845 |

| Variant | yeast fitness |
| --- | --- |
| U2C U19C A36U A37G C66G | ≤ 0.5 |
| U2C U28A A69U | ≤ 0.5 |
| U2C U35C C46U C55G | ≤ 0.5 |
| U2C U35G G52A C66U | ≤ 0.5 |
| U2G A14C C27U U35A C61G | ≤ 0.5 |
| U2G A14C C62G C66G | ≤ 0.5 |
| U2G A14U C22G C30G G58A | ≤ 0.5 |
| U2G A15U C24G U53A U64A | ≤ 0.5 |
| U2G A20G C22A A40C C46G G48A C49U A69C | ≤ 0.5 |
| U2G A20G U26A A43G G44C U53C | ≤ 0.5 |
| U2G A20U A43U G63A | ≤ 0.5 |
| U2G A20U C22A | ≤ 0.5 |
| U2G A20U C29A G39A A45C A70U | ≤ 0.5 |
| U2G A21C C22U C49A | ≤ 0.5 |
| U2G A21C C33A | ≤ 0.5 |
| U2G A21U G67C A70U | ≤ 0.5 |
| U2G A37C G41A C49U C60G A65G | ≤ 0.5 |
| U2G A42U U47A | 0.738 |
| U2G A45C C49U C55U | ≤ 0.5 |
| U2G A45C C60G C62G G68C | ≤ 0.5 |
| U2G C4A A37U | ≤ 0.5 |
| U2G C4A C22U U28G A42U C61U | ≤ 0.5 |
| U2G C4G C11A G68A | ≤ 0.5 |
